Changes are numbered by the printed parent chain. These are yes or no findings as the source states them, for the method shown. Binding seen in cells or lysates may run through a third protein. Binding calls can cover weak binding; strength is not graded here. For part of these data: Where a sequence is shown, tags or fusion partners need not be part of it.
What was measured:
[1] = target: T1, ATAD3A fusion for bimolecular fluorescence complementation (UniProt Q3KRE0); assay: split reporter; bimolecular fluorescence complementation in NRCMs
T1 sequence: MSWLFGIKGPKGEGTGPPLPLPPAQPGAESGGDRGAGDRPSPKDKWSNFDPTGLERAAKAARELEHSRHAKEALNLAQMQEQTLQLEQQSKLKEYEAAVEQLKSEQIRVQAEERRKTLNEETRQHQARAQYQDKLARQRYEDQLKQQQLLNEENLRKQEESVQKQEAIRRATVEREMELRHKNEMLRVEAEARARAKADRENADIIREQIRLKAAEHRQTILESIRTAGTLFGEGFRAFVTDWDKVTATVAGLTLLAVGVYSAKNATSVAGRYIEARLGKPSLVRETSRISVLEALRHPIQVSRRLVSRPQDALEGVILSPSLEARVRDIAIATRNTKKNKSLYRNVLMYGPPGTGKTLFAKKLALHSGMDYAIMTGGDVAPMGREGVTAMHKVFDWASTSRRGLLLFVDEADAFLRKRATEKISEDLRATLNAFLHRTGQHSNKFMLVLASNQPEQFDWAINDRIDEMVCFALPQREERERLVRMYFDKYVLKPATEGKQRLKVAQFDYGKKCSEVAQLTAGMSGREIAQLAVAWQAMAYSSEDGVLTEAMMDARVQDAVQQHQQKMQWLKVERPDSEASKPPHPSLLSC

EGFP-ATAD3A = target: T2, EGFP-ATAD3A (UniProt Q3KRE0); assay: FRET or BRET; FRET by acceptor photobleaching in NRCMs transfected with EGFP-ATAD3A and mCherry-SIRT3; 750 nm two-photon laser
T2 sequence: T1 sequence

[2] = target: T3, ATAD3A, endogenous in mouse heart (mouse (endogenous in mouse heart)) (UniProt Q925I1); assay: co-IP; endogenous proteins in mouse heart tissue lysate
T3 sequence: T1 sequence with S30G, N75S, N119T, F232L, N444S, A522E, E579Q, A580T, S581N

## SIRT3 fusion for bimolecular fluorescence complementation (enzyme)
[1]
  binding: binds

## mCherry-SIRT3 (enzyme)
EGFP-ATAD3A
  binding: binds

## SIRT3, endogenous in mouse heart (enzyme)
[2]
  binding: binds
